Experimental findings from publication doi:10.1101/2025.08.05.667964 are described below.

Chains of the proteins cited; added tags and fusions are not shown.
UniProt P45973: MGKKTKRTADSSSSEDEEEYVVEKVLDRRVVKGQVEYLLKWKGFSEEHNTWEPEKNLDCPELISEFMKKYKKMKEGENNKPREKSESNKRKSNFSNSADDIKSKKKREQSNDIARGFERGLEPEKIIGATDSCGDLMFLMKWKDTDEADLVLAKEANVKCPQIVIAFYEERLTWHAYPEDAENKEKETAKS

For the assay, the target named is T1, GFP-CHAMP1 (human) (UniProt Q96JM3).
T1 sequence: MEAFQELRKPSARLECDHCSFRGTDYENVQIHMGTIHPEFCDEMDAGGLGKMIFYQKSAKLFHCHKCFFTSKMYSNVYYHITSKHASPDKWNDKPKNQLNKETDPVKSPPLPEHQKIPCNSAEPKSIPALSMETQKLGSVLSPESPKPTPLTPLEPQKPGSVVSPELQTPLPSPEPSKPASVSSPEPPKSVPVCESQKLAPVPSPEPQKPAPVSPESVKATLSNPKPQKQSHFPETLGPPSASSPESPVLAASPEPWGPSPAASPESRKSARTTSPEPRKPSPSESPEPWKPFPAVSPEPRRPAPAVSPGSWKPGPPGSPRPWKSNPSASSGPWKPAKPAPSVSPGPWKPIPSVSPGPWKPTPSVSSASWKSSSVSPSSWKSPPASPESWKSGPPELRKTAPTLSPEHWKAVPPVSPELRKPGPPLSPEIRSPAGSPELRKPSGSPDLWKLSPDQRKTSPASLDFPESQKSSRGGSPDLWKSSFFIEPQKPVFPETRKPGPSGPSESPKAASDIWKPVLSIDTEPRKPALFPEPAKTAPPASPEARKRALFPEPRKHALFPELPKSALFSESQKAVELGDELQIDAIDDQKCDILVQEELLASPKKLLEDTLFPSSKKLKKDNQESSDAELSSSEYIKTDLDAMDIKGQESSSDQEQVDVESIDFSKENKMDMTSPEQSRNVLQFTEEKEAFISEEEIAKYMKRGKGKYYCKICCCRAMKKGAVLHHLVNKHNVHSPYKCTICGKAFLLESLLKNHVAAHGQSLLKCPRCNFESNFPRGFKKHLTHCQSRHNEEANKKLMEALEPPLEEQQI
Description: co-IP.

These are yes or no findings as the source states them, for the method shown. In cells and extracts the contact can be indirect. Some results given as binding are weak or reduced against the parent protein; the word gives no strength. Sequences can lack the tags named with a protein.

As to HP1α (from UniProt P45973 1-191), the binding result is “binds”.

B1: POGZ (protein, UniProt Q7Z3K3 1-1410)
chain: MADTDLFMECEEEELEPWQKISDVIEDSVVEDYNSVDKTTTVSVSQQPVSAPVPIAAHASVAGHLSTSTTVSSSGAQNSDSTKKTLVTLIANNNAGNPLVQQGGQPLILTQNPAPGLGTMVTQPVLRPVQVMQNANHVTSSPVASQPIFITTQGFPVRNVRPVQNAMNQVGIVLNVQQGQTVRPITLVPAPGTQFVKPTVGVPQVFSQMTPVRPGSTMPVRPTTNTFTTVIPATLTIRSTVPQSQSQQTKSTPSTSTTPTATQPTSLGQLAVQSPGQSNQTTNPKLAPSFPSPPAVSIASFVTVKRPGVTGENSNEVAKLVNTLNTIPSLGQSPGPVVVSNNSSAHGSQRTSGPESSMKVTSSIPVFDLQDGGRKICPRCNAQFRVTEALRGHMCYCCPEMVEYQKKGKSLDSEPSVPSAAKPPSPEKTAPVASTPSSTPIPALSPPTKVPEPNENVGDAVQTKLIMLVDDFYYGRDGGKVAQLTNFPKVATSFRCPHCTKRLKNNIRFMNHMKHHVELDQQNGEVDGHTICQHCYRQFSTPFQLQCHLENVHSPYESTTKCKICEWAFESEPLFLQHMKDTHKPGEMPYVCQVCQYRSSLYSEVDVHFRMIHEDTRHLLCPYCLKVFKNGNAFQQHYMRHQKRNVYHCNKCRLQFLFAKDKIEHKLQHHKTFRKPKQLEGLKPGTKVTIRASRGQPRTVPVSSNDTPPSALQEAAPLTSSMDPLPVFLYPPVQRSIQKRAVRKMSVMGRQTCLECSFEIPDFPNHFPTYVHCSLCRYSTCCSRAYANHMINNHVPRKSPKYLALFKNSVSGIKLACTSCTFVTSVGDAMAKHLVFNPSHRSSSILPRGLTWIAHSRHGQTRDRVHDRNVKNMYPPPSFPTNKAATVKSAGATPAEPEELLTPLAPALPSPASTATPPPTPTHPQALALPPLATEGAECLNVDDQDEGSPVTQEPELASGGGGSGGVGKKEQLSVKKLRVVLFALCCNTEQAAEHFRNPQRRIRRWLRRFQASQGENLEGKYLSFEAEEKLAEWVLTQREQQLPVNEETLFQKATKIGRSLEGGFKISYEWAVRFMLRHHLTPHARRAVAHTLPKDVAENAGLFIDFVQRQIHNQDLPLSMIVAIDEISLFLDTEVLSSDDRKENALQTVGTGEPWCDVVLAILADGTVLPTLVFYRGQMDQPANMPDSILLEAKESGYSDDEIMELWSTRVWQKHTACQRSKGMLVMDCHRTHLSEEVLAMLSASSTLPAVVPAGCSSKIQPLDVCIKRTVKNFLHKKWKEQAREMADTACDSDVLLQLVLVWLGEVLGVIGDCPELVQRSFLVASVLPGPDGNINSPTRNADMQEELIASLEEQLKLSGEHSESSTPRPRSSPEETIEPESLHQLFEGESETESFYGFEEADLDLMEI
For B1, the binding entry is reported as “binds”.
